The name of at least one read-out is uncertain.
Test: Optimisation of oral solution composition and blood sampling schedule, crossover in seven healthy laboratory dogs
Format: in vivo

O=C[C@H](O)[C@@H](O)[C@@H](O)[C@H](O)CO [galactose]
Time of galactose Cmax in plasma (after 10% w/v lactulose+1% w/v galactose solution, in 6 dogs of 7): 5 min | Time of galactose Cmax in plasma (after 20% w/v lactulose+2% w/v galactose solution, 1 dog of 7): 45 min | Time of galactose Cmax in plasma (after 20% w/v lactulose+2% w/v galactose solution, 2 dogs of 7): 15 min | Time of galactose Cmax in plasma (after 20% w/v lactulose+2% w/v galactose solution, 4 dogs of 7): 10 min

— US20240345095A1, “AN ASSAY FOR DETERMINING GASTROINTESTINAL PERMEABILITY BY DETERMINING A RATIO OF THE CONCENTRATION OF LACTULOSE TO THE CONCENTRATION OF GALACTOSE IN THE BLOOD SAMPLE” (TriviumVet Designated Activity Company, priority 2021, published 2024)
